The results in this text go back to patent publication US20140235820A1, “METHODS AND COMPOSITIONS FOR MODULATING THE Wnt PATHWAY” (Genentech, Inc., priority 2010, published 2014).

By UniProt entry, the sequences of proteins in these tests, tags left out. Where a name states a change or a piece, a line headed by the entry shows the natural chain unless it says otherwise. Residues count along the entry.
UniProt O75581: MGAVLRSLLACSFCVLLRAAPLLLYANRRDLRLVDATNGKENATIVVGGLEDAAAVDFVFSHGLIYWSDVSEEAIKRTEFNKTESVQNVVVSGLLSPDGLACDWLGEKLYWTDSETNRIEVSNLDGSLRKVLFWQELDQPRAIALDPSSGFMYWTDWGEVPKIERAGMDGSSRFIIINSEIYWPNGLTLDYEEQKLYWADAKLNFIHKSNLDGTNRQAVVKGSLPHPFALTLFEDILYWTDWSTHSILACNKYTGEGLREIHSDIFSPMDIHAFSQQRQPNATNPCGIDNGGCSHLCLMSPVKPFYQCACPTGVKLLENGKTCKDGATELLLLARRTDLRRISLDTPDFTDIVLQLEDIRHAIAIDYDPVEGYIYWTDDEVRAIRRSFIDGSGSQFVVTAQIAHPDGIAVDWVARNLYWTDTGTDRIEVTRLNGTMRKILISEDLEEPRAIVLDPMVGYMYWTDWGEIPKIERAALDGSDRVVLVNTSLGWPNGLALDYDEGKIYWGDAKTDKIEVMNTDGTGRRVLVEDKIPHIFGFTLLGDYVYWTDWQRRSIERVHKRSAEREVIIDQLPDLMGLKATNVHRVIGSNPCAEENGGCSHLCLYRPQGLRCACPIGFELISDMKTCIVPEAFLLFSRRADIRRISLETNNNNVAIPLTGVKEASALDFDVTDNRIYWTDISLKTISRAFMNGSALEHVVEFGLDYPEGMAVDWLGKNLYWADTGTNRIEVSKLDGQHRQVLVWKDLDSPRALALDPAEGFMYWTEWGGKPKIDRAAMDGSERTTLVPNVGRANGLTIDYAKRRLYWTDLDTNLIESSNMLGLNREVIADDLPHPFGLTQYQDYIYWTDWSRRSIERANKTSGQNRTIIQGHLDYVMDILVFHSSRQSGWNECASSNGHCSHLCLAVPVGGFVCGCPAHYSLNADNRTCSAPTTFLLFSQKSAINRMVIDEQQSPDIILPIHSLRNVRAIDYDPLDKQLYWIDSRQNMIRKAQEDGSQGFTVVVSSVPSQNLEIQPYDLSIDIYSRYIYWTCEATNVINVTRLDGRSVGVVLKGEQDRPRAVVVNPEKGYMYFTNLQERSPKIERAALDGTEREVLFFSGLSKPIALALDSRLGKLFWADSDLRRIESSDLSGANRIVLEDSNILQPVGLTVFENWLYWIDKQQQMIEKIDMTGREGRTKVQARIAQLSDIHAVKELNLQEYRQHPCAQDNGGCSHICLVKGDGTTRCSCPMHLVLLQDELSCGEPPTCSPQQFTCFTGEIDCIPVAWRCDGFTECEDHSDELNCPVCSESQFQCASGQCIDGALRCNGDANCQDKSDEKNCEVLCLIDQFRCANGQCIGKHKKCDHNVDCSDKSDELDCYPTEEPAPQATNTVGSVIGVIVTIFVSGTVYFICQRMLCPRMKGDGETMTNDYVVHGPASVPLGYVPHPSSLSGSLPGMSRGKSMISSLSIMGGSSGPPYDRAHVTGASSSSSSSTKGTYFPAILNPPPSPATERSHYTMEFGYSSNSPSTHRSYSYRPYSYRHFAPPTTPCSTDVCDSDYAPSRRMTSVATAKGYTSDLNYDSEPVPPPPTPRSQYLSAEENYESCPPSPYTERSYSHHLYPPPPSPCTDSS
human LRP6 construct E1E4 (amino acids A20-Q1253): residues 20-1253 of O75581
human LRP6 construct E1E2 (amino acids A20-E631): residues 20-631 of O75581
human LRP6 construct E1 (amino acids A20-D325): residues 20-325 of O75581
UniProt Q9BQB4, residues 24-213: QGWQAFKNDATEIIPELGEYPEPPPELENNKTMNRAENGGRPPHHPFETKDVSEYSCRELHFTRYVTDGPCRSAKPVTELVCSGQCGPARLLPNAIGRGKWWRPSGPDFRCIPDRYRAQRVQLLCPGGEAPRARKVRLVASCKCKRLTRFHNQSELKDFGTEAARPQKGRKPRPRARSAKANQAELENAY

The target in experiment [1] is human LRP6 construct E1 (amino acids A20-D325) (human) (UniProt O75581). Nature of the experiment: BLI (restates Example 5).
For experiment [2], the target named is human LRP6 construct E1E4 (amino acids A20-Q1253) (human) (UniProt O75581). Nature of the experiment: BLI. On the technique in general: Biolayer interferometry detects binding as a change in optical thickness at a sensor tip.
In experiment [3] the target is human LRP6 construct E1E2 (amino acids A20-E631) (human) (UniProt O75581). Nature of the experiment: BLI.
Experiment [4] addresses human LRP6 construct E1 (amino acids A20-D325) (human) (UniProt O75581). Briefly: BLI.
The target of experiment [5] is human LRP6 construct E1E2 (amino acids A20-E631) (human) (UniProt O75581). Briefly: BLI affinity.

These are yes or no findings as the source states them, for the method shown. Some results given as binding are weak or reduced against the parent protein; the word gives no strength.

For the molecule “Sclerostin (wild type) (from UniProt Q9BQB4 24-213) (ligand)”, the binding result in experiment [1], in experiment [2], in experiment [3] and in experiment [4] was “binds” in each case.

B1: Dkk1 Ile42Glu (ligand, human, UniProt O94907 32-266, looked up)
chain: TLNSVLNSNAEKNLPPPLGGAAGHPGSAVSAAPGILYPGGNKYQTIDNYQPYPCAEDEECGTDEYCASPTRGGDAGVQICLACRKRRKRCMRHAMCCPGNYCKNGICVSSDQNHFRGEIEETITESFGNDHSTLDGYSRRTTLSSKMYHTKGQEGSVCLRSSDCASGLCCARHFWSKICKPVLKEGQVCTKHRRKGSHGLEIFQRCYCGEGLSCRIQKDHHQASNSSRLHTCQRH
notes: also called Dkk1 I42E
As to B1, in experiment [5], the binding result is listed as “no binding (tested: >364-fold effect)”.
